Laboratory results from patent publication US20170362323A1 (Kyowa Kirin, published 2017).
No constants are given. Whether binding was seen depends on the method and setting. Some binding calls cover weakened binding; strength is not graded here.

By UniProt entry, the sequences of proteins in these tests, tags left out. Where a name states a change or a piece, a line headed by the entry shows the natural chain unless it says otherwise. Chains listed by the source or under a name are the forms on record and can include a tag or linker.
recombinant CD74 protein (Santa Cruz Biotechnology) (P04233, form named): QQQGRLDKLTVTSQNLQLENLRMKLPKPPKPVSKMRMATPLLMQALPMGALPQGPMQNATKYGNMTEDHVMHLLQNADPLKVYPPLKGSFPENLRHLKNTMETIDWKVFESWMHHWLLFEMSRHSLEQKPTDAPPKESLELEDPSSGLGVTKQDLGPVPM

Molecular target: recombinant CD74 protein (Santa Cruz Biotechnology) (human) (UniProt P04233)
Assay: ELISA, CD74 coated at 2 ug/mL, detection with peroxidase-labeled anti-human kappa chain antibody

B1: anti-CD74 IgG1 antibody hLL1 F (antibody, V domains shown)
VH: QVQLQQSGSELKKPGASVKVSCKASGYTFTNYGVNWIKQAPGQGLQWMGWINPNTGEPTFDDDFKGRFAFSLDTSVSTAYLQISSLKADDTAVYFCSRSRGKNEAWFAYWGQGTLVTVSS
VL: DIQLTQSPLSLPVTLGQPASISCRSSQSLVHRNGNTYLHWFQQRPGQSPRLLIYTVSNRFSGVPDRFSGSGSGTDFTLKISRVEAEDVGVYFCSQSSHVPPTFGAGTRLEIK
  binding: binds
